Source: PMC6716823
These are yes or no findings as the source states them, for the method shown. In cells and extracts the contact can be indirect. Some results given as binding are weak or reduced against the parent protein; the word gives no strength.

The chains behind the UniProt entries cited, without tags or fusion partners.
UniProt P31751: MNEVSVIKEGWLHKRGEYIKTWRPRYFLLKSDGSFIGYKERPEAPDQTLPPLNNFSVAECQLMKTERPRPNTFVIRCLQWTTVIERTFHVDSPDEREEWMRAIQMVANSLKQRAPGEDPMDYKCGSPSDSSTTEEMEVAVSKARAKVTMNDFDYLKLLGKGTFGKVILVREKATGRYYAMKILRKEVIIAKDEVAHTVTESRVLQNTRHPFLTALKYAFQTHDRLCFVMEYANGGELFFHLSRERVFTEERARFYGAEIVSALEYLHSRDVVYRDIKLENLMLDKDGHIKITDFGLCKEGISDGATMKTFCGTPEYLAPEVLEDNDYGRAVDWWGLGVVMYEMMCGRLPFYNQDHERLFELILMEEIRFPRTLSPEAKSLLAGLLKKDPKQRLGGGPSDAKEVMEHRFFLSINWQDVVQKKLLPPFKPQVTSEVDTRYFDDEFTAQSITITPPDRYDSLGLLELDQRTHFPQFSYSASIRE
UniProt Q9Y243: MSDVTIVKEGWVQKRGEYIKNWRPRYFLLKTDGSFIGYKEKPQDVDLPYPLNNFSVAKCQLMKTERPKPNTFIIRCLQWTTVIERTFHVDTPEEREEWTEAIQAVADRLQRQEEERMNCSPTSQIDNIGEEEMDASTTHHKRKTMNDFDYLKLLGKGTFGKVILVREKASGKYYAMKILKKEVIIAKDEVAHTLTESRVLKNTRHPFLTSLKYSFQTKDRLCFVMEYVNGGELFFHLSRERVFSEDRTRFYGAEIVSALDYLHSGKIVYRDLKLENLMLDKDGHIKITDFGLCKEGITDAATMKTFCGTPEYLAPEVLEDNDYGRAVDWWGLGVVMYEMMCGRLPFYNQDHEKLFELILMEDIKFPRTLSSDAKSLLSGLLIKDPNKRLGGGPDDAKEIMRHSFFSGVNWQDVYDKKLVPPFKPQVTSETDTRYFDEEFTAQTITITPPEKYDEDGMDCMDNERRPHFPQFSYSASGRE

Columns and labels:
[1] = molecular target: T1, phosphorylated PDK1 (phosphoinositide-dependent kinase-1) (human (endogenous in HEK293T, U251, SW1783)) (UniProt O15530); assay: co-IP; SW1783 cells transfected with increasing doses of circ-AKT3 siRNA (legend: shRNA); IP with AKT2, AKT3 and p-PDK1 antibodies, immunoblot
T1 sequence (chain, phosphorylated (p-PDK1); site not printed): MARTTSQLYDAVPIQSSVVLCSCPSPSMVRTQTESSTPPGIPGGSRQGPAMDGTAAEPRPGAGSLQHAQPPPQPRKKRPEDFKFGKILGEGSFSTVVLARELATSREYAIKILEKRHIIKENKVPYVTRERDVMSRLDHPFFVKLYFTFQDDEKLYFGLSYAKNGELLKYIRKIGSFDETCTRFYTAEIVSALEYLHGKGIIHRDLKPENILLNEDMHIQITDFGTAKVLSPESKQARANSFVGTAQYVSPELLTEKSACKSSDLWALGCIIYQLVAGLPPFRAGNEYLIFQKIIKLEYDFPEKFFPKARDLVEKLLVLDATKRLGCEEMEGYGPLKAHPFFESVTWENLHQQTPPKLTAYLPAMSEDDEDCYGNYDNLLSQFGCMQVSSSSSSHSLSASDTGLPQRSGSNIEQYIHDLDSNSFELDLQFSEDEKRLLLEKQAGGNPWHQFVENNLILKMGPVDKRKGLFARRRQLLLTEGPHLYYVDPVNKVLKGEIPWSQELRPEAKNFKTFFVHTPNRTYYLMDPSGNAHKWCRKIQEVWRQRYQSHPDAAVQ

[2] = molecular target: T1, phosphorylated PDK1 (phosphoinositide-dependent kinase-1) (human (endogenous in HEK293T, U251, SW1783)); assay: co-IP; U251 cells transfected with increasing doses of circ-AKT3; IP with AKT2, AKT3 and p-PDK1 antibodies, immunoblot

| Substance | binding [1] | binding [2] |
| --- | --- | --- |
| AKT2 (from UniProt P31751 1-481) (enzyme) | binds | binds |
| AKT3 (from UniProt Q9Y243 1-479) (enzyme) | binds | binds |
